Laboratory results reported in PubChem BioAssay AID588497 (NMMLSC, 2011).
Screen size: about 360,000 compounds; about 780 (0.22%) were called active. Inconclusive means that the source gave no clear call. Such entries were picked first, then a sample of the others. Cut-off read from the data, not from the text of the source: active = inhibition above about 35% (passing the limit was not always enough); inconclusive = no clear call, values can overlap the other calls.

tested on: Botulinum neurotoxin type F light chain protease (Clostridium botulinum); assay: BoNT/F light chain protease inhibitors, primary screen, biochemical, flow cytometry, MLPCN library (AID 588497); details: Multiplex microsphere protease cleavage assay, at 10 µM, hits give high values; note: plate controls were buffer without enzyme for full effect and enzyme alone for no effect

Structure (SMILES)	inhibition
NC(=O)CC(NC(=O)Cc1cccc2ccccc12)c1ccc(N2CCN(c3ccccn3)CC2)c([N+](=O)[O-])c1 (stereo not given)	inactive: -5.1%
COc1ccc(Cn2cnc([N+](=O)[O-])c2)cc1[N+](=O)[O-]	inconclusive: -60.7%
COc1ccc(Nc2cc(C(=O)NCCCN3CCN(C)CC3)c3ccccc3n2)cc1	inconclusive: -1.3%
O=C(CCCNS(=O)(=O)c1cccc2nsnc12)NC1CCCCC1	inconclusive: 50.7%
CCOC(=O)COc1nc(-c2ccc(C)cc2)cc(-c2ccco2)c1C#N	inconclusive: 119%
Cc1cc(=O)oc2cc(OCC(=O)N3CCCC(C)C3)ccc12 (stereo not given)	inconclusive: -9.9%
CCCCC(O)(CCCC)C(=O)N/N=C(\C)c1ccc(Cl)cc1	inconclusive: -168%
CCN(CC)CC(O)Cn1c(-c2cccc(Cl)c2)nc2cc(C)c(C)cc21 (stereo not given)	inconclusive: -24.3%
Cn1cccc1/C=N/NC(=O)C(O)c1ccccc1 (stereo not given)	inconclusive: -12.9%
N/C(=N\OC(=O)c1cccc(Cn2cc(C(F)(F)F)ccc2=O)c1)c1ccc(Cl)cc1	inconclusive: -4.4%
COc1cccc(C(=O)NNC(=O)CCC(=O)O)c1	inactive: -4.6%
CCC(Oc1ccc(C)cc1)C(=O)Nc1ccc2c(c1)n(C)c(=O)n2C (stereo not given)	inconclusive: -19.7%
Cc1cc(C)cc(OCCn2ccnc2)c1	inconclusive: 19.3%
CC(=O)Nc1nc(NCc2ccccc2Cl)n(-c2ccccc2)n1	inconclusive: 4.2%
C/C(=N\NC(=O)c1ccc([N+](=O)[O-])cc1)c1cc2ccccc2oc1=O	inactive: 8.1%
COc1ccccc1-c1nnc(-c2ccc(C)cc2)o1	inconclusive: -12.1%
CCCc1ccc(OCCNC(=O)c2ccccc2Br)cc1	inconclusive: 23.2%
CC(=O)Nc1cccc(-c2ccnc3c2CC(C(=O)NCc2ccc(F)c(F)c2)O3)c1 (stereo not given)	inactive: -2.1%
O=C(OCc1cccc(F)c1)c1cc2ccccc2cc1O	inconclusive: -3.4%
CCN(CC)C(=O)CSc1nnc(CCCCCNC(=O)OC(C)(C)C)o1	inactive: 4.6%

Compounds from the list above containing a halogen:
Structure (SMILES)	inhibition
CCCCC(O)(CCCC)C(=O)N/N=C(\C)c1ccc(Cl)cc1	inconclusive: -168%
CCN(CC)CC(O)Cn1c(-c2cccc(Cl)c2)nc2cc(C)c(C)cc21 (stereo not given)	inconclusive: -24.3%
N/C(=N\OC(=O)c1cccc(Cn2cc(C(F)(F)F)ccc2=O)c1)c1ccc(Cl)cc1	inconclusive: -4.4%
CC(=O)Nc1nc(NCc2ccccc2Cl)n(-c2ccccc2)n1	inconclusive: 4.2%
CCCc1ccc(OCCNC(=O)c2ccccc2Br)cc1	inconclusive: 23.2%
CC(=O)Nc1cccc(-c2ccnc3c2CC(C(=O)NCc2ccc(F)c(F)c2)O3)c1 (stereo not given)	inactive: -2.1%
O=C(OCc1cccc(F)c1)c1cc2ccccc2cc1O	inconclusive: -3.4%

Further records.

Structure (SMILES)	inhibition
COc1cccc(OC)c1C(=O)Nc1nc(-c2ccccc2)cs1	inconclusive: 6.3%
O=C(NNc1c(Cl)cncc1Cl)c1sccc1Cl	inconclusive: 36.9%
Cn1nc(NC(=O)C(F)(F)F)c2ncc(-c3ccc(Cl)cc3)nc21	inconclusive: -27.5%
COc1ccc(NC(=O)CN2C(=O)C(C)Oc3ccccc32)cc1 (stereo not given)	inactive: 0.6%
Cc1cc(C(=O)Nc2ccc3c(c2)OCCO3)ccc1[N+](=O)[O-]	inconclusive: 6%
CCN(CC)C(=O)c1ccc(N(Cc2ccccc2)S(C)(=O)=O)cc1	inconclusive: 1.6%
CCOC(=O)c1nnn2c1nc(N1CCCCC1)c1ccccc12	inconclusive: 4.2%
Cc1cc2c(Nc3ccc(C(=O)O)cc3)ncnc2s1	inconclusive: 6.6%
Nc1c(Cl)ncnc1NCc1ccccc1	inconclusive: -3.5%
Clc1ccc(CN2CCCCCC2)cc1	inconclusive: -17.3%
N=c1sccn1CC(=O)Nc1ccccc1Cc1ccccc1	inconclusive: -16.2%
O=S(=O)(NCc1ccccc1Cl)c1cccs1	inactive: -7.2%
COc1ccc(Cl)cc1S(=O)(=O)n1c([N+](=O)[O-])cnc1C	inconclusive: 14.2%
O=[N+]([O-])c1ccccc1N/N=C\c1ccccc1F	inconclusive: -6.9%
O=C(Nn1c(C2CCC2)nc2ccccc2c1=O)C1CCC1	inactive: 13.6%
CN(CC(=O)Nc1cccc(F)c1)C(=O)c1ccc2c(=O)n3c(nc2c1)CCC3	inconclusive: -2%
CCC(NC(=O)c1ccccc1NC(=O)c1ccccc1)C(=O)NNC(=O)c1cccnc1 (stereo not given)	inconclusive: -3.6%
O=C(Nc1ccc(N2CCCC2)cc1)c1cccc(Cl)c1Cl	inconclusive: 16.8%
CC(=O)N1c2ccc(S(=O)(=O)N3CCCCC3)cc2CC1C(=O)NCc1cccc(Cl)c1 (stereo not given)	inactive: 0.3%
COc1ccc(CNC(=O)Cn2nc([N+](=O)[O-])c(Br)c2C)cc1	inconclusive: 26.5%

Structure (SMILES)	inhibition
CCCCOc1ccc(C(=O)OCC(=O)NC2CCCC2)cc1	inconclusive: 17.9%
COc1ccc(-n2nc(C(=O)NCC(=O)NC(C)C)c3ccccc3c2=O)cc1Cl	inconclusive: 10.7%
CCOc1ccc(C(=O)Nc2cccc3cccnc23)cc1	inconclusive: -36%
CC(=O)c1c(C)[nH]c(C(=O)COC(=O)C2(C)CC2(Cl)Cl)c1C (stereo not given)	inconclusive: 20.5%
Cc1ccc(OCC(=O)OC(C)CN2CCCCC2)cc1 (stereo not given)	inconclusive: 14.9%
O=C(CCc1ccccc1)Nc1ccc2c(c1)OCCO2	inconclusive: 11.4%
NC(=O)COc1ccc(C(=O)/C=C2/C(=O)Nc3ccccc32)cc1	inconclusive: -35.7%
C(=Nc1ccc(N2CCOCC2)cc1)c1c[nH]c2ccccc12	inconclusive: -36.3%
CCc1ccc(OCCOC(=O)Nc2ccccc2)cc1	inconclusive: 2.3%
COc1ccc(OC)c(S(=O)(=O)N2CCN(c3ccc(F)cc3)CC2)c1	inconclusive: 20.3%
CCn1nc2cc(C(=O)NCCc3cccs3)ccc2c1OC	inactive: 0.3%
O=C(c1ccco1)N1CCCSC1=Nc1ccccc1	inactive: -2.6%
Nc1nc(C2CCOCC2)cs1	inconclusive: -8.5%
O=C1CN(C(=O)COC(=O)c2ccc(Cl)cc2)c2ccccc2N1	inconclusive: -11.9%
O=C(Nc1cccnc1)c1ccccc1Cl	inconclusive: -2.5%
CCOC(=O)c1[nH]c(C)c(C(=O)OCC(=O)NC(=O)NC(C)(C)C)c1C	inactive: 3.7%
COCCCNC(=O)c1ccc(N2CCCC2)c(NS(=O)(=O)c2ccc(C)cc2)c1	inactive: -5.9%
COc1cc(NC(=O)[C@H]2O[C@@H](n3cnc4c(N)ncnc43)[C@H](O)[C@@H]2O)cc(OC)c1OC	inactive: 3.4%
COc1ccc(/C=C/c2nnc(NC(=O)C(C)(C)C)s2)cc1	inconclusive: -9%
CCc1c(C(=O)NCCc2ccc(OC)c(OC)c2)[nH]c(C)c1C(C)=O	inconclusive: -6%

Rewritten in CSV form: entries from further up.
Structure (SMILES),inhibition
Cn1nc(NC(=O)C(F)(F)F)c2ncc(-c3ccc(Cl)cc3)nc21,inconclusive: -27.5%
O=C(Nn1c(C2CCC2)nc2ccccc2c1=O)C1CCC1,inactive: 13.6%
